Data: US20220356238A1
These are yes or no findings as the source states them, for the method shown. Some binding calls cover weakened binding; strength is not graded here.

T1: Human C-C motif chemokine 14 (CCL14) (human) (UniProt Q16627)
T1 sequence: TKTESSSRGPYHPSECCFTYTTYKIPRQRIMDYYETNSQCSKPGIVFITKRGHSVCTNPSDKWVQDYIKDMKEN


Columns and labels:
[1] = target: T1, Human C-C motif chemokine 14 (CCL14) (human); experiment: sandwich ELISA; human CCL14 captured by MAB3241, detection antibody read with goat anti-rabbit-HRP
[2] = target: T1, Human C-C motif chemokine 14 (CCL14) (human); experiment: peptide array of CCL14-derived peptides; epitope identified from binding to the array
[3] = target: T1, Human C-C motif chemokine 14 (CCL14) (human); experiment: sandwich ELISA; human CCL14 captured by antibody B, detection antibody read with goat anti-rabbit-HRP
[4] = target: T1, Human C-C motif chemokine 14 (CCL14) (human); experiment: sandwich ELISA; human CCL14 captured by antibody F, detection antibody read with goat anti-rabbit-HRP

binding [1]	binding [2]	binding [3]	binding [4]	Binder
binds	binds			14H1/14K1 (antibody, V domains shown) VH: QSLEESGGDLVKPGAFLTLTCTASGFSFSGSDYMWWVRQAPGKGLEWIACIYGGYSGSTYYASWAKGRFTISKTSSTTVTLQMTRLTAADTAIYFCARDGGVTHFSHFDLWGQGTLVTVSS VL: DVVMTQTPASVSEPVGGTVTIKCQASEDIYRLLAWYQQKPGQPPKLLIYGASTLASGVPSRFSGSGSGTEYTLTINDLECADAATYYCQYITYGSDVLTAFGGGTEVVVKG
binds	binds	binds	binds	5H2/5K3 (antibody, V domains shown) VH: QSVKESEGGLFKPTDTLTLTCTVSGFSLYSGAINWVRQAPGEGLQYIGWISDVGSAYYASWAKSRSTITRNTNENTVTLKMTSLTAADTATYFCARGDGSSGNYWVTDIWGQGTLVTVSS VL: AVVLTQTASPVSAPVGGTVTINCQASESISSRLAWYQQKPGQPPKLLIYGASTLASGVPSRFKGSGSGTEFTLTISDLECADAATYSCQEYLSDNTFGGGTEVVVKG
binds	binds	binds	binds	8H3/8K3 (antibody, V domains shown) VH: QSVKESEGGLFKPTDTLTLTCTVSGFSLYSGAINWVRQAPGEGLQYIGWISDVGSAYYASWAKSRSTITRNTNENTVTLKMTSLTAADTATYFCARGDGSSGNYWVTDIWGQGTLVTVSS VL: AVVLTQTASPVSAPVGGTVTINCQASESISSRLAWYQQKPGQPPKLLIYGASTLASGVPSRFKGSGSGTEFTLTISDLECADAATYSCQEYLSDNTFGGGTEVVVKG
	binds			9H3/9K2 (antibody, V domains shown) VH: QSVKESEGGLFKPTDTLTLTCTVSGFSLNSYGVNWVRQAPGNGLEYIGTVGSSGSAYYASWAKSRSTITRNTNLNTVTLKMTSLTAADTATYFCARGLIATMSIWGQGTLVTVSS VL: AQVLTQTASSVSAAVGGTVTISCQSSQSVHSNNYLAWYQQKPGQPPKQLIYLASTLASGVPSRFKGSGSGTQFTLTISDLECDDAATYYCAGGYSGMIFTFGGGTEVVVKG
binds	binds	binds	binds	24H1/24K1 (antibody, V domains shown) VH: QSLEESGGDLVKPGASLTLTCIGSGFDFSSNAIWWVRQAPGKGLEWIACLYGGTSGSTEYATWAKGRFTISKTSSTTVTLQMTSLTDADTATYYCAGGVVTWSYPRQLYLWGQGTLVTVSS VL: DVVMTQTPASVSAVVGGTVTIKCQASQSISSWLSWYQQKLGQPPKLLIYSASTLASGVPSRFKGSGSGADYTLTISDLECADAATYYCQSNTAVHTYNFGGGTEVVVKG
	binds			15H1/15K3 (antibody, V domains shown) VH: QSLEESGGDLVKPGASLTLTCTASGFSFSRSYYVCWVRQAPGKGLEWIVCIYGGSSDTTYYASWAKGRFTISKTSSTTVTLQLNSLTAADTATYFCARRDVSGGYDYGMDLWGQGTLVTVSS VL: AYDMTQTPASVEVAVGGTVTIKCQASEDIESYLAWYQQKPGQPPKLLIYDASDLASGVPSRFKGSGSGTEYTLTISDLECDDAATYYCRQGYSSSNVDNVFGGGTEVVVKG
